# Assay results published in PubChem BioAssay AID540256 (National Center for Advancing Translational Sciences (NCATS), 2011).
# The campaign covered roughly 300,000 compounds. About 3,700 (1.2%) were called active. Inconclusive means that the source gave no clear call. Such entries were picked first, then a sample of the others. Calls follow the shape of the full dose curve; tested in HEK293 cells. Where the call is inconclusive, the potency comes from a doubtful curve fit.
# Test: qHTS for Inhibitors of binding or entry into cells for Lassa Virus; also: nearly all actives have a fitted effect of over 50% in size
# Conditions: Lassa virus pseudotype entry inhibition, cell reporter; series mostly up to 37.9 µM
# Potency is read from the fitted curve at half-maximal effect.
row,Structure (SMILES),Potency
1,COc1ccc(Cn2nc(-c3ccccc3)c(N3CCCCC3)cc2=O)cc1,"inconclusive: 8.91 µM [inhibitor, partial curve, poor fit]"
2,CCN(CC(=O)Nc1c(F)cccc1F)C(=O)COc1ccc2c(c1)CCC2,"inconclusive: 14.1 µM [inhibitor, single point]"
3,Cc1ccc(Cl)cc1N1CCN(CC(=O)NC2CCCc3ccccc32)CC1 (centres undefined),"inconclusive: 14.1 µM [inhibitor, single point]"
4,COc1ccccc1N/N=C1\COC(C)(C)CC1=O,inactive
5,Cc1ccc(NC(=O)NCC2CC2(Cl)Cl)cc1 (centres undefined),"inconclusive: 31.6 µM [inhibitor, single point]"
6,COc1ccc(-n2nnnc2CNC(=O)C(=O)c2c(C)[nH]c3ccccc23)cc1,"inconclusive: 3.55 µM [inhibitor, full curve, poor fit]"
7,Cc1ccc(NC(=O)c2ocnc2C)cc1Cl,"inconclusive: 2.59 µM [activator, full curve, poor fit]"
8,COc1ccc(C)cc1NC(=O)CSc1nnc(COc2ccccc2)n1Cc1ccco1,inactive
9,OCC1OC(n2cnc3c(/C=C(\O)c4ccccc4)ncnc32)C(O)C1O (centres undefined),"inconclusive: 1.26 µM [activator, partial curve]"
10,O=C(CSc1nc2ccccc2c(=O)n1Cc1ccco1)c1ccc(F)cc1,"inconclusive: 13 µM [inhibitor, partial curve, poor fit]"
11,Cc1nc(-c2ccc(S(=O)(=O)N3CCN(c4cccc(C)c4C)CC3)cc2)co1,"inconclusive: 35.5 µM [inhibitor, single point]"
12,O=C1Nc2cc3c(cc2C1=O)sc1ccccc13,"inconclusive: 11.2 µM [inhibitor, single point]"
13,COc1ccccc1-c1nc(SCc2ccccn2)n[nH]1,"inconclusive: 10 µM [activator, partial curve]"
14,CN(CC(=O)Nc1ccccc1Br)C(=O)c1cccc(S(=O)(=O)N2CCc3ccccc32)c1,"inconclusive: 35.5 µM [inhibitor, single point]"
15,COc1ccc(-c2nc3c(-c4ccc(F)cc4)cnn3cc2C)cc1F,"inconclusive: 15.8 µM [inhibitor, partial curve, poor fit]"
16,O=C(COC(=O)c1ccc(Cl)s1)c1ccc[nH]1,"inconclusive: 6.31 µM [activator, partial curve, poor fit]"
17,Cc1ccccc1CN1CCNC1=O,inactive
18,CNC(=S)Nc1ccc(Nc2ccccc2)cc1,inactive
19,O=C(Nc1cccc(Cl)c1)c1cnn2cccnc12,"inconclusive: 1.64 µM [activator, partial curve, poor fit]"

# Shown bar-delimited: 2 of the compounds above
row | Structure (SMILES) | Potency
7 | Cc1ccc(NC(=O)c2ocnc2C)cc1Cl | inconclusive: 2.59 µM [activator, full curve, poor fit]
16 | O=C(COC(=O)c1ccc(Cl)s1)c1ccc[nH]1 | inconclusive: 6.31 µM [activator, partial curve, poor fit]
